Measurements from paper PMC6599204.
For part of these data: No signal at the amounts used counts as a negative. For part of these data: At least one verdict rests on a figure or table, not on a statement of the authors. For part of these data: Protein sequences can lack the tags named with them. For part of these data: A weaker result is weaker than the reference pair of the same experiment. For part of these data: The exact form of at least one protein or probe is not confirmed.

Columns and labels:
Experiment in all cases: EMSA
[1] = biological target: UAF1 11A R30A,R50A,K117A,T161A,K168A,S230A,R272A,R274A,K275A,K318A,I363A (human) (UniProt Q8TAF3); conditions: 200-800 nM protein, stated deficient, EMSA with 10 nM 32P-labeled DNA, binding buffer, recombinant protein, protein details: Strep II
UAF1 SLD (human) = biological target: T1, UAF1 SLD (human) (UniProt Q8TAF3); conditions: 100-400 nM protein, EMSA with 10 nM 32P-labeled DNA, binding buffer, recombinant protein, residues 390-677
T1 sequence (looked up): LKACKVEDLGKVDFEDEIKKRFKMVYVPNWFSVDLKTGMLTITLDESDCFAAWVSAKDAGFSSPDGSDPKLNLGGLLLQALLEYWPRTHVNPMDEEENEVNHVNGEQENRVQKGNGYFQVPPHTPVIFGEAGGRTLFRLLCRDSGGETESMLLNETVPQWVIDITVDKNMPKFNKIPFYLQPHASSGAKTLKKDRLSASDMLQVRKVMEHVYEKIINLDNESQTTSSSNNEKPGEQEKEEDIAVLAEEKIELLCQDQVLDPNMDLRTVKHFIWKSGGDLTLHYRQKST

UAF1 436X (human) = UAF1 436X (human) (UniProt Q8TAF3); conditions: 100-400 nM protein, as avid as full length, EMSA with 10 nM 32P-labeled DNA, binding buffer, recombinant protein, residues 1-436
[2] = biological target: UAF1 3A R30A,R50A,K168A (human) (UniProt Q8TAF3); conditions: 200-800 nM protein, stated deficient, EMSA with 10 nM 32P-labeled DNA, binding buffer, recombinant protein, protein details: Strep II
UAF1 (WT) (human) = UAF1 (WT) (human) (UniProt Q8TAF3); conditions: 100-400 nM protein, 10 nM DNA, EMSA with 10 nM 32P-labeled DNA, binding buffer, recombinant protein, protein details: Strep II
[3] = label: 32P on D3, folded or branched DNA
[4] = label: 32P on P1, single-stranded DNA

## CATTGCATATTTAAAACATGTTGGAAGGCTCGATGCATGCTGATAGCCTACTAGTGCTGCTGGCTTTCAAATGACCTCTTATCAAGTGAC / GTCACTTGATAAGAGGTCATTTGAATTCATGGCTTAGAGCTTAATTGCTGAATCTGGTGCTGGGATCCAACATGTTTTAAATATGCAATG / CTGCTACGATGCTAGTCGTAGCTCGGCAGTCGTAGCAGGTTCCCAGCACCAGATTCAGCAATTAAGCTCTAAGCCATGAA [D-loop D1/D2/D3]
[1]; [3]
  binding result: binds more weakly
UAF1 SLD (human); [3]
  binding result: no binding
UAF1 436X (human); [3]
  binding result: binds
[2]; [3]
  binding result: binds more weakly
UAF1 (WT) (human); [3]
  binding result: binds

## TTATATCCTTTACTTTGAATTCTATGTTTAACCTTTTACTTATTTTGTATTAGCCGGATCCTTATTTCAATTATGTTCAT (double strand) [dsDNA P1/P2]
[1]; label: 32P on P1
  binding result: binds more weakly
UAF1 SLD (human); label: 32P on P1
  binding result: no binding
UAF1 436X (human); label: 32P on P1
  binding result: binds
[2]; label: 32P on P1
  binding result: binds more weakly
UAF1 (WT) (human); label: 32P on P1
  binding result: binds

## TTATATCCTTTACTTTGAATTCTATGTTTAACCTTTTACTTATTTTGTATTAGCCGGATCCTTATTTCAATTATGTTCAT [ssDNA P1]
[1]; [4]
  binding result: binds more weakly
UAF1 SLD (human); [4]
  binding result: no binding
UAF1 436X (human); [4]
  binding result: binds
[2]; [4]
  binding result: binds more weakly
UAF1 (WT) (human); [4]
  binding result: binds
